{"source": "patent US6472198B1", "about": "“Slow release substrates for driving microbial transformations of environmental contaminants” (The State of Oregon Acting by and through the State Board …, priority 1998, dated 2002)", "tested_on": "microbial culture grown on TBOS", "assay": "Aerobic cometabolism of cis-DCE by microorganisms grown on TBOS", "format": "cell-based", "conditions": "TBOS 20 mg/L and cis-DCE 2 mg/L aqueous, duplicate", "description": "Gas phase TCE and cis-DCE concentrations were measured by injecting 10-100 μL of a gaseous sample into a HP-5890 gas chromatograph connected to a photoionization detector (PID) followed by a flame ionization detector (FID). Chromatographic separation was carried-out with a 30-m megabore GSQ-PLOT column from J&W Scientific (Folsom, Calif.). The GC operating conditions were as follows: injector temperature, 250° C.; detector temperature: 280° C.; the column was initially maintained at 40° C. for 2 minutes and then heated to 220° C. at 15° C./minute.\nThe microcosms for aerobic cometabolism studies were carried out as described in Example 1 under the heading “Aerobic Biodegradation.” The bacterial culture used was that described in Example 1 under the heading “Enrichment of Aerobic Culture.” cis-DCE and TCE stocks in water were prepared by saturating distilled water with cis-DCE and TCE at 30° C. TCE and cis-DCE dissolved in the water to their solubility limit. […]\nThe microbial culture grown on TBOS was tested for its ability to cometabolize cis-DCE. […] Four microcosms and two controls were evaluated: a poisoned control with TBOS and cis-DCE; an autoclaved control with TBOS and cis-DCE; two biologically active microcosms with TBOS and cis-DCE; a resting cell microcosm with only cis-DCE; and an acetylene block microcosm with TBOS and cis-DCE.", "note": "Some entries share one result that the patent states for a list of compounds. For at least one compound, name, drawing or mass did not settle the structure."}
{"smiles": "Cl/C=C\\Cl", "note": "[cis-DCE, cis-dichloroethylene]", "values": [{"measurement": "time to transformation in biologically active microcosms", "result": "≤ 15", "unit": "hours"}]}
